Measured values as given in PubChem BioAssay AID1794844 (National Center for Advancing Translational Sciences (NCATS), 2023).
Hit rate of the full screen: of about 2,800 compounds, fewer than 10 were called active. Not shown: some 7% with an inconclusive outcome. The call rests on the fitted dose curve; in most records, active means well fitted inhibition curve with a large enough effect; inconclusive means small, poorly fitted or top-dose-only effect; inactive means no such curve, though single readings can be large or run the other way. The list shows a part of the results.

The chains behind the UniProt entries cited, without tags or fusion partners. Where a name states a change or a piece, a line headed by the entry shows the natural chain unless it says otherwise.
UniProt C7C422: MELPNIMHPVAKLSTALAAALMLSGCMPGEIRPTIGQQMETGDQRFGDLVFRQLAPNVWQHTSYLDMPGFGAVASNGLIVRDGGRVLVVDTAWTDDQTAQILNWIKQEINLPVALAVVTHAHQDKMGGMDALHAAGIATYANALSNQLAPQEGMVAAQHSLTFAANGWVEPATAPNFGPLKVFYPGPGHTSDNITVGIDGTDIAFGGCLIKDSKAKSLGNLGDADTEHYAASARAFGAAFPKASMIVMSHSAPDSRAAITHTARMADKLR

Target: Metallo-beta-lactamase type 2 (Klebsiella pneumoniae) (UniProt C7C422)
Assay: qHTS to identify inhibitors of the New Delhi Metallo-beta-lactamase (NDM): Nitrocefin screen against the machine-based learning selections. Further: % of control where 0% means no effect.
Conditions: NDM-1 enzyme, nitrocefin hydrolysis, absorbance 485 nm; activity, negative = inhibition: at the top concentration
Method in brief: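 NDM-1 (2 nM final) in 50 mM HEPES pH 7.0, 1 uM Zn2SO4, 0.01% Tween20 was preincubated with compounds for >30 min. Nitrocefin (16.7 uM final) was read at 485 nm after 15 min, and meropenem (50 uM final) at 300 nm after 30 min.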

activity, negative = inhibition, inactive:
O=C(NC[C@H]1COCc2nc3cc(F)ccc3n21)C1CC1 5.46% [at 76.7 µM], Cc1cccc(CC(=O)N2CCC[C@H]2c2nc(-c3ccccc3)no2)c1 1.08%, CS(=O)(=O)N1CCC(C2CCN(C(=O)Cc3cccc(F)c3)C2)CC1 (stereo not given) 1.68%, CC(NC(=O)c1ccc(C(C)(C)C)cc1)C(=O)N1CCN(c2ccccn2)CC1 (stereo not given) -0.127%, O=C(O)c1ccc(CN2CC[C@@H](c3ccc4c(c3)OCO4)[C@H](O)C2)cc1 -3.59%, O=C(C[C@@H]1CCNC[C@@H]1Cc1cc(-c2ccc(F)cc2)on1)NCc1ccccc1 1.59% [at 57.5 µM], CN(C)CCOCC1(C)COc2ccc(C(=O)Nc3ccc4[nH]ccc4c3)cc2N1 (stereo not given) 4.78% [at 57.5 µM], Fc1ccc(-c2cc(CC3(NC4CCCCC4)COC3)no2)cc1 0.353% [at 57.5 µM], Cc1noc2c(-c3cccc(CO)c3)cc(-c3cccs3)nc12 -8.66% [at 57.5 µM], COCC(=O)NC[C@@H]1C=C(C)[C@H](CC(=O)Nc2ccccn2)C[C@H]1C(C)C 1.86% [at 57.5 µM], CNC(=O)[C@@H](C1CC1)N1CCC[C@H]1C(=O)NC1CC1 7.5% [at 76.7 µM], OC1(c2csc(CN3CCN(c4ccccn4)CC3)n2)CCN(CC2CCCCC2)CC1 3.3%, COCCNS(=O)(=O)c1cc(C(=O)O)cc(-c2cccc(C(C)N(C)C)c2)c1 (stereo not given) 1.2%, C#CCNC(=O)C[C@@H]1C[C@@H](C(C)C)[C@H](CNS(C)(=O)=O)C=C1C -7.21% [at 57.5 µM], O=C(C[C@@H]1CCNC[C@@H]1Cc1cc(CN2CCOCC2)on1)N1CCC(Cc2ccccc2)CC1 -9.78%, CC1=C[C@@H](CNC(=O)C2CCCCC2)[C@H](C(C)C)C[C@H]1CC(=O)N1CCN(c2ccccn2)CC1 -2.19%, CC(C)CCNC(=O)c1cccnc1N1CC2CC(C1)[C@H]1CCCC(=O)N1C2 (stereo not given in full) 4.33%, COCCn1nc2n(c1=O)CCN(S(=O)(=O)c1ccc(Cl)s1)CC2 -6.63%, O[C@H]1[C@H](NCC2CCCCC2)[C@H]2CO[C@H](O2)[C@@H]1N1CCC(Cc2ccccc2)CC1 5.79% [at 57.5 µM], O=C(NCCc1csc(-c2cccnc2)n1)C1NCCc2[nH]cnc21 (stereo not given) 16.4%, O=C(Nc1cccc2ccccc12)O[C@@H]1CO[C@H]2[C@@H]1OC[C@@H]2n1nnnc1-c1ccc(-c2ccccc2)cc1 -1.39%, CC1=C[C@@H](CNC(=O)CCCC(=O)O)[C@H](C(C)C)C[C@H]1Cc1nc2ccc(F)cc2[nH]1 0.278% [at 57.5 µM], O=C(NC1CCN(c2cc(-c3ccc(Cl)cc3)[nH]n2)C1)c1ccncc1 (stereo not given) -1.2%, CN(C)Cc1cn([C@H]2CO[C@H]3[C@@H]2OC[C@H]3OC(=O)Nc2ccc(C(C)(C)C)cc2)nn1 -1.08% [at 57.5 µM], COC(=O)[C@@H]1Cc2ncn(Cc3ccc(Cl)cc3)c2CN1Cc1ccc(C(=O)O)cc1 -5.37%, CCNC(=O)N[C@H]1CO[C@H]2[C@@H]1OC[C@@H]2Nc1nccc(-c2ccc(OC)cc2)n1 2.24% [at 57.5 µM], CCc1noc(-c2ccn3c(CNC(=O)c4ccc(OC)c(F)c4)nnc3c2)n1 10.2%, O=C(c1ccco1)N1CCN(Cc2ccc3c(c2)CCO3)CC(O)C1 (stereo not given) -3.94%, CCn1cnnc1CCNC(=O)c1cc(-c2ccc(C)cc2)nc2ccccc12 -6.46%, CC(C)(C)C(=O)N1CCC2(C1)C(=O)N(CCc1ccccc1)c1ccccc12 (stereo not given) -1.6%, CNC(=O)C1(N2CCC[C@H]2C(=O)NC(C)C)COC1 -16.1% [at 76.7 µM], O=C(O)c1ccc([S+](=O)([O-])N2CC(COc3ccccc3)C3(CN(c4ccccc4)C3)C2)cc1 (stereo not given) -4.68%, c1ccc(-c2cn3c(n2)CO[C@@H](CNCc2ccc4ccccc4n2)C3)cc1 6.93% [at 57.5 µM], Cc1ccc(NC(=O)N2CCCC(c3nccn3Cc3ccncc3)C2)cc1C (stereo not given) 6.03%, COC[C@]1(O)CCN(C(=O)CSCc2ccccc2C)CC1(C)C -0.216%, CN1CCCC2(C1)CN(Cc1cccnc1)c1ccc(C(=O)Nc3ccc(F)cc3)cc12 (stereo not given) 3.65% [at 57.5 µM], O=C(c1cccc2cnccc12)N1CCC2(CC1)Nc1ccccc1NC2=O 2.13%, CC(C)(C)CC(=O)N1CCC(C(NC(=O)c2ccccc2Cl)C(=O)N2CCCCC2)CC1 (stereo not given) -13.5%, O=C(O)C[C@@H]1CCN(C(=O)C2CCCCC2)C[C@@H]1CCN1CCN(c2ccccn2)CC1 -8.03%, O=c1c2nc(-c3cccc(O)c3)ccc2ncn1Cc1ccccn1 -12.6% [at 57.5 µM], CC1(C(=O)NCc2cccnc2)CCCc2cnc(Nc3ccccc3)nc21 (stereo not given) 2.44% [at 57.5 µM], Cc1ccc2c(n1)N(C)[C@H](CO)CCN(Cc1ccc(Cl)cc1)C2 5% [at 57.5 µM], O=c1c2nc(NCc3ccccc3)ccc2ncn1Cc1ccccc1 -4.47% [at 57.5 µM], CCc1ccc(CNC(=O)c2ccc3c(c2)N(C)C2CCCCN2C3=O)cc1 (stereo not given) -2.68%, CCCC1(CO)CCCN(Cc2ccc(OCC(=O)N3CCCC3)cc2)C1 (stereo not given) 2.88%, COC(=O)N1CCCC(c2nn(-c3ccc(OC)cc3)c(=O)[nH]2)C1 (stereo not given) 0.846% [at 57.5 µM], COc1ccc(Cl)cc1-c1ccc2c(c1)C(=O)N1CCN(C(=O)CO)C[C@@H]1C(=O)N2 -4.97% [at 57.5 µM], Cc1ccc(S(=O)(=O)N(C)CC2CCOC2)cc1F (stereo not given) -2.16%, Cc1ccc2nc(C3CCN(Cc4ccc(-c5cccs5)cc4)CC3)[nH]c(=O)c2c1 -0.194%, CC(=O)NC[C@@H]1C=C(C)[C@H](CC(=O)N(C)Cc2ccccc2)C[C@H]1C(C)C -10.3% [at 57.5 µM], c1c(CC2CCCCC2)nnn1[C@H]1CO[C@H]2[C@@H]1OC[C@@H]2NCC1CCCCC1 2.36% [at 57.5 µM], CN1[C@@H](CCC(=O)N2CC[C@@H](O)C2)CNC(=O)[C@@H]2[C@H]1CCN2C1CCOCC1 -2.72% [at 57.5 µM], Cc1ccc2nc(C3CCCN(Cc4ccccc4)C3)[nH]c(=O)c2c1 (stereo not given) 0.6% [at 57.5 µM], CC(=O)Nc1ccc(CN2CC3(C2)C(=O)N(Cc2ccc(C)o2)C(=O)[C@@H]2C[C@@H](O)CN23)cc1 -2.61%, CCNC(=O)O[C@@H]1CO[C@H]2[C@@H]1OC[C@@H]2NC(=S)Nc1ccc(N(C)C)cc1 0.306% [at 57.5 µM], CN(Cc1ccccc1)Cc1cn([C@H]2CO[C@H]3[C@@H]2OC[C@@H]3NC(=O)CCC(=O)O)nn1 -6.98% [at 57.5 µM], Cc1noc([C@@H](C)NS(=O)(=O)c2ccccc2)c1C(=O)O 23.1% [at 57.5 µM], COc1ccc(C(=O)N2CCCC(O)(CN3CCCC3)C2)cc1Cl (stereo not given) -1.26%, COc1ccc(C(=O)N2CCC(N3CCCCCC3=O)CC2)cc1 8.26% [at 57.5 µM], Cc1cc(Cn2cc3c4c(cccc42)[C@H](CC(C)C)N[C@H](C(=O)NCCN2CCCC2)C3)no1 1.83%
